Data as given in PubChem BioAssay AID1259424 (University of Nebraska Medical Center, 2018).
Shown is one part, drawn at random, of about 14,000 reagents tested. 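Higher correlation or smaller distance means closer resemblance to KSR1 loss; control wells, including KSR1 knockdowns, recur on many plates.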 Not given: the time to read-out.

Test: 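Seek colon cancer survival genes behaving like KSR1, using a six-gene signature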 (primary screen)
Cells: human HCT116 colon cancer cells
Knock-down reagent: siRNA pool against human genes, 50 nM
Measured: 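Log2 levels of six mRNAs (branched-DNA multiplex), adjusted by two reference genes and the non-targeting median, then scored against the average KSR1 knockdown pattern as Pearson r and euclidean distance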
Direction: mean correlation with KSR1 profile and KSR1 correlation: higher = expression change more like KSR1 knockdown; mean distance from KSR1 profile: higher = expression change less like KSR1 knockdown

no.	gene symbol	mean correlation with KSR1 profile	mean distance from KSR1 profile	KSR1 correlation, replicate 1	KSR1 correlation, replicate 2	KSR1 correlation, replicate 3
1	PSPC1	0.264	1.71	0.255	0.229	-0.0684
2	DRD2	0.614	3.06	0.36	0.526	0.471
3	SCEL	-0.271	2.26	-0.275	-0.296	-0.198
4	CTTN	-0.444	3.41	-0.222	-0.522	-0.5
5	SLC22A1	0.66	0.82	0.375	0.696	0.679
6	GRAP2	-0.192	1.5	-0.306	-0.192	-0.0479
7	CCPG1	-0.333	1.82	-0.127	-0.456	-0.567

The list goes on (2 carried over from the part before).
no.	gene symbol	mean correlation with KSR1 profile	mean distance from KSR1 profile	KSR1 correlation, replicate 1	KSR1 correlation, replicate 2	KSR1 correlation, replicate 3
6	GRAP2	-0.192	1.5	-0.306	-0.192	-0.0479
7	CCPG1	-0.333	1.82	-0.127	-0.456	-0.567
8	GAN	0.397	1.55	0.313	0.56	0.121
9	TMEM186	-0.0532	4.42	0.118	-0.325	0.101
10	ZNF614	0.178	2	0.0797	0.247	-0.0568
11	CD8B	0.0787	1.23	0.321	-0.0465	0.133
12	IFNGR2	0.083	1.35	0.185	-0.363	0.244
13	C1QBP	0.084	1.42	0.00977	0.0992	0.0208
14	SAGE1	-0.327	1.62	0.018	-0.476	-0.388
15	GDF10	0.111	1.3	-0.355	0.202	0.209
16	NLRP3	-0.347	1.25	-0.329	-0.366	-0.296
17	FOXD3	0.289	1.34	0.391	0.307	0.157
18	DNAJA3	0.146	2.34	0.313	0.163	0.221
19	OSER1	-0.476	2.45	-0.61	-0.176	-0.253
20	GSE1	-0.463	3.51	-0.353	-0.542	-0.514
